Drawing on doi:10.1101/2024.11.15.623779, this text covers binding for 1 substance.

Protein sequences, listed by entry. Tags and fused reporters are not part of them. Lines headed by an entry give the natural chain unless they say otherwise; changes in a name come on top. Residues count along the entry.
UniProt P11021, 19-654: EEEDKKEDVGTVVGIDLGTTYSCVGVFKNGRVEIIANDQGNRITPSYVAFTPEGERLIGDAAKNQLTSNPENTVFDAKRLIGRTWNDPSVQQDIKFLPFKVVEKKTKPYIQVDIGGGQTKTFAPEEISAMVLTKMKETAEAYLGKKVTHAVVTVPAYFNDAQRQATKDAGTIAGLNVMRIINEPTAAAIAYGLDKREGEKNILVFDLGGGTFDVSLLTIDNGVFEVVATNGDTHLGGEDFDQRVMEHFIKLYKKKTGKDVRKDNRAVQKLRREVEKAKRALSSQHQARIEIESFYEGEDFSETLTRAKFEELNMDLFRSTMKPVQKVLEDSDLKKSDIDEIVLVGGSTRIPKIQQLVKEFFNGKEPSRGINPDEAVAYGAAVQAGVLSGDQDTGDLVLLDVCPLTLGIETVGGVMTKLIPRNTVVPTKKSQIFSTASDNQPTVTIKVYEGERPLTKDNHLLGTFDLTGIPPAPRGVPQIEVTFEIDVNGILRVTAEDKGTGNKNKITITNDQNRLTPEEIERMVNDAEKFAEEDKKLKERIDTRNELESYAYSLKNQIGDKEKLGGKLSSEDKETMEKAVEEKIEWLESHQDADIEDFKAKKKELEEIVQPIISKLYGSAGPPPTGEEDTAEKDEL

For the assay, the target named is T1, Glucosylceramidase beta 1 (GCase) Leu444Pro, HA-tagged (human) (UniProt P04062).
T1 sequence: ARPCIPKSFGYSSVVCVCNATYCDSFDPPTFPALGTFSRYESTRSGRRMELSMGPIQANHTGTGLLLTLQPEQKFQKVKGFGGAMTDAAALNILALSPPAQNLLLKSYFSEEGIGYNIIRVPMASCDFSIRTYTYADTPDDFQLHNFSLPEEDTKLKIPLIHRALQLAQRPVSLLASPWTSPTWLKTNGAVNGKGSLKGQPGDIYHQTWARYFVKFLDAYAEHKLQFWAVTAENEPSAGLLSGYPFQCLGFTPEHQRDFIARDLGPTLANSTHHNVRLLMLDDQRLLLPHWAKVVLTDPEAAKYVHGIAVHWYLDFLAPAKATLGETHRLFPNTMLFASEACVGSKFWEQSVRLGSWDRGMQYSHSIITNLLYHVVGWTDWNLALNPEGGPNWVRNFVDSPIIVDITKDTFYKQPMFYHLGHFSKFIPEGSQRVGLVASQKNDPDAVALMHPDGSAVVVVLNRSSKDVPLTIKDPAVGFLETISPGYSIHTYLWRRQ
Nature of the assay: co-IP.

Results are given in words; binding and its absence hold for the method and conditions named. Binding seen in cells or lysates may run through a third protein. Some results given as binding are weak or reduced against the parent protein; the word gives no strength. Tags and fused reporters may be left off the sequences shown.

Turning to “Binding immunoglobulin protein (endogenous in HEK293) (from UniProt P11021 19-654)”, the binding result is “binds”.
